At least one compound was matched to its structure with a doubt left.
How the values were obtained:
Type in all cases: in vivo
P301S mice [1] = assay: Behavior and body weight (openfield, grid test, accelerated rotorod) in P301S mice and wild-type littermates
P301S mice [2] = assay: Immunohistochemistry of tau pathology and lysosomal markers in P301S mice
P301S mice [3] = assay: Western blotting in P301S mice (total tau, phospho-GSK3β, phospho-p70S6K, LC3, COX2)
P301S mice [4] = assay: Glial activation immunohistochemistry (CD11b, GFAP) in P301S mice
P301S mice [5] = assay: Oxidative stress markers and PGC1α pathway in spinal cord of P301S mice
P301S mice [6] = assay: Brown adipose tissue pathology and qRT-PCR gene expression in P301S mice
P301S mice [7] = assay: Mitochondria characterisation in brains of P301S and wild-type mice; conditions: wild-type mice fed bezafibrate diet vs control diet, brain
Description: Animals were generated by breeding P301S transgenic male mice with wild-type female mice obtained from Jackson Laboratory (Bar Harbor, Me., USA). Offspring were genotyped by PCR of tail DNA. P301S transgenic mice and their wild-type littermates were randomly assigned to receive either control diet (LabDiet 5002) or 0.5% bezafibrate diet (Sigma, St. Louis, Mo., USA) from 1 to 10 months of age ad libitum. The chow was pelleted by Purina-Mills (Richmond, Ind., USA). Behavioral analyses were performed at 5, 7, and 9 months of age. Histopathological and biochemical analyses were conducted at 10 months of age on the same animals. All experiments were approved by the Weill Cornell Medical College Institutional Animal Care and Use Committee.
Dissected, non-perfused frontal lobe samples (˜30-55 mg) were stored frozen at ? 80° C. until assaying. Before assays, tissue samples were thawed on ice and homogenized with Dounce-type 2 ml homogenizer (glass vessel/glass pestle). […]
The protein lysates containing equal amounts of protein were separated by SDS-PAGE, electroblotted onto a nitrocellulose membrane (BioRad, Hercules, Calif., USA), and immunoreacted with an appropriate primary antibody (see below) followed by HRP-conjugated secondary antibody (Kierkegaard Perry Labs Inc., Gaithersburg, Md., USA). […] Quantitative analysis was performed using NIH “ImageJ” software. […]

[8] = P301S mice, 5, 7 and 9 months, 0.5% bezafibrate diet
[9] = cortex and hippocampus, 10 months

CC(C)(Oc1ccc(CCNC(=O)c2ccc(Cl)cc2)cc1)C(=O)O [bezafibrate]
openfield anxiety-related abnormalities (time in center, disinhibition) (P301S mice [1]; [8]): rescued
openfield locomotor abnormalities (hyperactivity) (P301S mice [1]; [8]): rescued
latency to fall from the grid and the rotorod (P301S mice [1]; bezafibrate treated vs control treated mice): increased latency to fall
openfield behavior, wild-type groups with or without treatment (P301S mice [1]; wild-type mice): No differences
LAMP1 immunoreactivity (P301S mice [2]; brain sections): increased
cathepsin D immunoreactivity (P301S mice [2]; brain sections): increased
AT8 immunoreactivity (tau phosphorylation) (P301S mice [2]; [9]): diminished
MC1 immunoreactivity (neurofibrillary tangle formation) (P301S mice [2]; [9]): diminished
tau hyperphosphorylation (figure description, tissue not stated) (P301S mice [2]; p>0.05, n=5): did not significantly reduce
AT8 immunoreactivity (P301S mice [2]; spinal cord): trend toward a decrease
COX2 levels (P301S mice [3]): reduced
levels of LC3 I (P301S mice [3]): did not alter
levels of LC3 II (P301S mice [3]): increased
levels of normal total tau (DA9 antibody) (P301S mice [3]): did not alter
levels of phospho-p70S6K (P301S mice [3]): reduced
levels of phospho-GSK3β (P301S mice [3]; cortical, western blotting): significantly decreased
percentage area covered by CD11b immunoreactivity (P301S mice [4]; P301S mice, hippocampus): significantly decreased
CD11b immunoreactivity (P301S mice [4]; cerebral cortex or spinal cord): No differences
levels of GFAP (P301S mice [4]; hippocampus, P301S mice and wild-type littermates): reduced
MDA levels (P301S mice [5]): significantly rescued
expression of PGC1α (P301S mice [5]): increased
expression of nuclear respiratory factor 1 (NRF1) (P301S mice [5]): increased
mitochondrial voltage-dependent anion channels (VDAC) (P301S mice [5]): elevated
nitrotyrosine levels (P301S mice [5]): significantly rescued
brown adipose pathology (vacuolation, Hematoxylin-Eosin) (P301S mice [6]; P301S mice): much improved
size of lipid droplets in brown fat (P301S mice [6]; P301S mice): reduced
gene expression of PGC1α, NRF1 and Tfam in brown adipose tissue (P301S mice [6]; P301S mice, qRT-PCR): increased
brown adipose vacuolation, wild-type mice with or without bezafibrate (P301S mice [6]; wild-type mice): No differences
Tfam and NRF1 expressions in brown adipose tissue (P301S mice [6]; wild-type mice fed bezafibrate diet vs control diet): increased
complex I level (P301S mice [7]): increased
